Source: patent publication US12338456B2, “Method for increasing the specific production rate of eukaryotic cells” (Hoffmann-La Roche Inc., priority 2014, dated 2025)

Test system: Recombinant CHO-K1 cells producing a humanized monoclonal antibody
Test: Phe→xTyr sequence variant quantification in produced antibody (tryptic peptide LC-MS), with penalty factor and critical ratio calculation
Assay type: cell-based, Chinese Hamster
Conditions: 0.1 mM, 0.3 mM and 0.4 mM supplementation at day 14

| SMILES | Measured maximum xTyr misincorporation (tracer peptide HC66-72) | Measured maximum xTyr misincorporation (tracer peptide HC129-140) |
| --- | --- | --- |
| N[C@@H](Cc1cccc(O)c1)C(=O)O [meta-Tyr, meta-tyrosine] | 1.5-2.4% | 1.9-3.0% |
| NC(Cc1ccccc1O)C(=O)O (stereo not shown) [ortho-Tyr, ortho-tyrosine, reference compound] | 1.6-2.0% | 2.3-2.7% |
